Results on 42 sequences are retold here after article PMC7819943, “Rice protein-binding microarrays: a tool to detect cis-acting elements near promoter regions in rice”.

The other results are listed elsewhere or left out.

The experiment concerns the target T1, OsSMF1 (Oryza sativa, UniProt Q6ZLB0 1-436).
T1 sequence: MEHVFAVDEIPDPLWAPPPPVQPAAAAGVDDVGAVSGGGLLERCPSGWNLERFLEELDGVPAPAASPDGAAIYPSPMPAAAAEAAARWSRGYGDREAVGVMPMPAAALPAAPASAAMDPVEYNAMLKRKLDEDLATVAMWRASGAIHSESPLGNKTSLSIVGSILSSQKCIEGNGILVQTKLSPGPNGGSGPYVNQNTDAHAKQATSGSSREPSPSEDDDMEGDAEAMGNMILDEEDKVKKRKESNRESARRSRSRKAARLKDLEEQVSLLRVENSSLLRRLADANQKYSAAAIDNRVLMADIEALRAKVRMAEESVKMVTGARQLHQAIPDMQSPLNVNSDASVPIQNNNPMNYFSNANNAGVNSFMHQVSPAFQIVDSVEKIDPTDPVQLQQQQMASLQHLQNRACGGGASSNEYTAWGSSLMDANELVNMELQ
Put plainly: protein-binding microarray (RPBM); PBS, 2% BSA, 51.3 ng/ul salmon testes DNA, 50 uM zinc acetate, 200 nM TF, 25 C, 1 h; high values mean tight binding. The note with it: protein: recombinant; tags: N-terminal polyhistidine and DsRed monomer fusion (pET32a); chain copies: 2; label: CyDye5-dUTP incorporated in the synthesized complementary strand; 3' TTTTT single-stranded linker to array surface; dsDNA, one strand shown. The gist of the method:
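Using Ni–NTA, transcription factors fused N-terminally to polyhistidine and DsRed were purified after expression in E. coli BL21-CodonPlus. These were incubated at 200 nM with a blocked, double-stranded custom Agilent array for 1 h at 25 °C in a buffer containing 50 µM zinc acetate, and the array was washed. The binding signal is per-feature fluorescence intensity (arbitrary units) on an Axon 4000B scanner.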
Regarding “GTTTAGAAACCAGGTCATTTGTATCTTGACGATCAACTGGCGGAGTCACCTAGTGCAG”, the binding signal was 3680 fluorescence intensity (a.u.).
To “TCGGTTGGTCGATTTTCGGCTGACCGGGCATACCATCTTGCGGAGTCACCTAGTGCAG” belongs 3670 fluorescence intensity (a.u.).
In the case of “CCGCCACCCACTCGCGACCCGCCACGTGTGCAGGACCTGGCGGAGTCACCTAGTGCAG” it was 18700 fluorescence intensity (a.u.); in that of “CGCCACGGCGGACAAAACCGTCGCCACATCGGACAAATCGCGGAGTCACCTAGTGCAG”, 8680 fluorescence intensity (a.u.); in that of “GCAATGCGTGCGTGGCCGACGTACTCAATTCGTGGGTACACGGAGTCACCTAGTGCAG”, 7670 fluorescence intensity (a.u.).
In the case of “ACTCGAAAGTCCATCCCCGGTACGCATGACGCATCAAACCCGGAGTCACCTAGTGCAG” it was 7310 fluorescence intensity (a.u.); in that of “GTCGAAGCGACGCGAGAGCGCGCACACGTGTTCTTCAGCCCGGAGTCACCTAGTGCAG”, 7010 fluorescence intensity (a.u.).
For “CTGGGTGGGGCCCACACGTCATCCGCACTGCTTCTAGAACCGGAGTCACCTAGTGCAG”, the binding signal is 10800 fluorescence intensity (a.u.).
To “TGGATGCAACAACAGAGCATGACATGACACTACAGGTCAGCGGAGTCACCTAGTGCAG” belongs 6130 fluorescence intensity (a.u.); to “TCTTCTTCTTCTCCACGTCCCCGGCCTCTCTTCTCGCTCTCGGAGTCACCTAGTGCAG”, 8730 fluorescence intensity (a.u.).
For the sequence “GACTATCTTCGAGGGGTTGAAGATGACAGTAGACTGTGCACGGAGTCACCTAGTGCAG”, the binding signal was 3190 fluorescence intensity (a.u.).
In the case of “CAGATGACAAGTTCGCACGGGCTGACAGGGACAATCGGATCGGAGTCACCTAGTGCAG” it was 4510 fluorescence intensity (a.u.); in that of “ACCTCCGCCTCGTCGCCCGCTTCGCCCATCGCCATCGCGCCGGAGTCACCTAGTGCAG”, 3840 fluorescence intensity (a.u.).
Regarding “GGGCTTGTGAACCGGGAGGCGAGGGGAGGGTTATGAGAGTCGGAGTCACCTAGTGCAG”, the binding signal is 3680 fluorescence intensity (a.u.).
In the case of “TGGGCCCATAATCGGCCCAGATAACAACCCTCCTCCGCATCGGAGTCACCTAGTGCAG” it was 4320 fluorescence intensity (a.u.).
To “TCTGGGAGGCCCGCACGGATAGATGCCACGACGATGCAGGCGGAGTCACCTAGTGCAG” belongs 4080 fluorescence intensity (a.u.).
To “TTGCTGATTATTCCACGTCATACAACAACCCATTTTCCAACGGAGTCACCTAGTGCAG” belongs 17900 fluorescence intensity (a.u.).
For the sequence “TACTGAACTGAACTAAGCTCAGTCAATCCCATGCATGTTGCGGAGTCACCTAGTGCAG”, the binding signal was 3730 fluorescence intensity (a.u.).
In the case of “CGCGCCACCGCGCGAGCTCTCGCCCTCACGTGGCGATCGACGGAGTCACCTAGTGCAG” it was 4710 fluorescence intensity (a.u.); in that of “CTGAGAAGAACAACGAAGACACCATTCAGAGCAAAGCTTCCGGAGTCACCTAGTGCAG”, 7460 fluorescence intensity (a.u.).
Turning to “CATTGTACATACTACGCGGTAAGTATCCATGTGTGGGGTTCGGAGTCACCTAGTGCAG”, the binding signal is 4180 fluorescence intensity (a.u.).
To “GTGTTTTGAATAATGTCTCTGCTGTCCAAAACTACTCCCTCGGAGTCACCTAGTGCAG” belongs 3280 fluorescence intensity (a.u.).
To “TCCTGGGTCGCCCTCCTCCGTGACGCACCTTGACTGCCCCCGGAGTCACCTAGTGCAG” belongs 5190 fluorescence intensity (a.u.); to “ATGTTTGTGAAGTGACATATCACATATTGATCTATCATACCGGAGTCACCTAGTGCAG”, 5200 fluorescence intensity (a.u.); to “ACCACCACATCACATTATCCCCGTGCCGTCCAATCCAACGCGGAGTCACCTAGTGCAG”, 3850 fluorescence intensity (a.u.).
In the case of “AGCGAATCTAGGGGCTGCCACGTGGCTCGCACGCGCACGTCGGAGTCACCTAGTGCAG” it was 28000 fluorescence intensity (a.u.); in that of “AAAACCAATCTACCACCAACTGACAGATGATTGCCTTTCGCGGAGTCACCTAGTGCAG”, 18100 fluorescence intensity (a.u.); in that of “ATTTAGATGACATGCAAACAGATGAAAATCCACATTCCTCCGGAGTCACCTAGTGCAG”, 3350 fluorescence intensity (a.u.).
As for “TCATGCTCTCTGAGGAGAATGACACGACGAGAAAGAAGAGCGGAGTCACCTAGTGCAG”, the binding signal was 4110 fluorescence intensity (a.u.).
As to “GTGCCGCTGAGCTTTGCTGATTTGGCTTTTCCTTGTTGCGCGGAGTCACCTAGTGCAG”, the binding signal is 5870 fluorescence intensity (a.u.).
To “GCAAGTGCCCCGGCGCGCCGCTCGGCGTCATCCTGGTGCTCGGAGTCACCTAGTGCAG” belongs 3840 fluorescence intensity (a.u.).
On to “ACCATGCAGGGAGGGACAACACGTGTCATTGGGAGACACGCGGAGTCACCTAGTGCAG”, for which the binding signal is 3230 fluorescence intensity (a.u.).
To “TGCCACGTGACGTCCCTTCCTTCGGCGGCTTTGCCCGCTTCGGAGTCACCTAGTGCAG” belongs 8220 fluorescence intensity (a.u.); to “TGAATACGCGATTCTTCCTGTGAAAGCTGACGCGTTTGGTCGGAGTCACCTAGTGCAG”, 3480 fluorescence intensity (a.u.).
In the case of “GAGTCGCGCCTGGGCCGGCAGCTCTAACAACCCATCCCGGCGGAGTCACCTAGTGCAG” it was 17300 fluorescence intensity (a.u.); in that of “GAGACCGTTCTGAATTTCTGAGACTGATACATATTTGATGCGGAGTCACCTAGTGCAG”, 40300 fluorescence intensity (a.u.); in that of “CGTCCCTTTCAGTCGTCGCCGCTGACACTACCTTGCTCCCCGGAGTCACCTAGTGCAG”, 4830 fluorescence intensity (a.u.).
To “CGCAATTCCGCCGCCGCCGCAGCCACGTTGGCCGGCGGCCCGGAGTCACCTAGTGCAG” belongs 5020 fluorescence intensity (a.u.); to “TGTGAAGTGAAAACTATTATTTCTGACTCATAGATGTCATCGGAGTCACCTAGTGCAG”, 3800 fluorescence intensity (a.u.).
For “GCTGAACAGGGGAGGGGCGGCGATCTCTATCTGGCGAGCACGGAGTCACCTAGTGCAG”, the binding signal was 3880 fluorescence intensity (a.u.).
To “ACAAACCTATCAATGAACAGTACATGTCGATCCCAATGGGCGGAGTCACCTAGTGCAG” belongs 4550 fluorescence intensity (a.u.); to “TTGTGGTACGATACTAGTACTACTAGTAGACTAGTAGCAGCGGAGTCACCTAGTGCAG”, 3260 fluorescence intensity (a.u.).
